Test results from paper PMC5378391, “Maltose binding protein-fusion enhances the bioactivity of truncated forms of pig myostatin propeptide produced in E. coli” (PLoS ONE, 2017).
These are yes or no findings as the source states them, for the method shown. Some binding calls cover weakened binding; strength is not graded here. Where a sequence is shown, tags or fusion partners need not be part of it.

Key:
[1] = biological target: T1, MBP-fused truncated pig MSTNpro containing residues 42-98 (pig) (UniProt O18831); experiment: condition: only at 1 nM MBP-Pro42-98 with 6 nM MSTN; pull-down; as a2, but 1 nM MBP-Pro42-175 or MBP-Pro42-98 with 6 nM MSTN on amylose resin; immuno-blot against MSTN; both purified
T1 sequence: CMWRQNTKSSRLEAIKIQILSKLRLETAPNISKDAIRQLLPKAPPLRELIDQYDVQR

[2] = biological target: T1, MBP-fused truncated pig MSTNpro containing residues 42-98 (pig); experiment: pull-down; MBP-MSTNpro protein (480 nM) plus MSTN (48 nM) mixed with 50 uL amylose resin in 1 mL, 2 hr at room temperature; washed three times with column buffer; eluted in reducing SDS-PAGE loading buffer; Coomassie blue staining; both purified
[3] = biological target: T1, MBP-fused truncated pig MSTNpro containing residues 42-98 (pig); experiment: pull-down; MSTN (6 nM) with 15, 30, 45 and 60 nM MBP-Pro42-175 or MBP-Pro42-98, or 60 nM MBP, on amylose resin; eluate immuno-blotted with monoclonal anti-MSTN antibody; both purified
[4] = biological target: T1, MBP-fused truncated pig MSTNpro containing residues 42-98 (pig); experiment: SEC; factor Xa digest of MBP-Pro42-98 on Superdex 75 (FPLC); fractions f16 (void volume) and f22 analysed by reducing SDS-PAGE; both purified

Myostatin (MSTN) (from UniProt O14793 267-375) (ligand)
binding [1]: no binding
binding [2]: binds
binding [3]: binds

B1: Pro42-98 (MBP removed by factor Xa) (domain or fragment, pig, UniProt O18831 42-98, looked up)
chain: CMWRQNTKSSRLEAIKIQILSKLRLETAPNISKDAIRQLLPKAPPLRELIDQYDVQR
notes: Pig myostatin propeptide (MSTNpro), residues 42-98; Derived from m4; also called MBP-removed MSTNpro domain containing residues 42-98; source: E. coli K12TB1; MBP-Pro42-98 digested with factor Xa, soluble fraction of the digest / Superdex 75 fraction f16; not shown: MBP, N-terminal, cleaved
binding [4]: binds
